# Experimental data reported in PubChem BioAssay AID2718 (Broad Institute, 2010).
# Chains of the proteins cited; added tags and fusions are not shown.
# UniProt O15379, whole entry, looked up: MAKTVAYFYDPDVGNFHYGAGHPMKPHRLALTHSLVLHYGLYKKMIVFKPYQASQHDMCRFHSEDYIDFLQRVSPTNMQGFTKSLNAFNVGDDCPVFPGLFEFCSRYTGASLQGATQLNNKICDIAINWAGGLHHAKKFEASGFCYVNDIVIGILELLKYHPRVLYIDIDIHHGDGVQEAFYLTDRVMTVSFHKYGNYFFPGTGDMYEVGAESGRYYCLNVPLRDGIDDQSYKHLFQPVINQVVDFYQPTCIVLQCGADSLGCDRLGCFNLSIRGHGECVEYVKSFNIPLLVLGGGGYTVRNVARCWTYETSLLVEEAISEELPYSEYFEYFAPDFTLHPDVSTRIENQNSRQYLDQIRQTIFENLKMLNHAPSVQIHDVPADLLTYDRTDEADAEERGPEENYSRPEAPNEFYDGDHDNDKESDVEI
# The whole screen tested about 320,000 compounds, of which about 480 (0.15%) were called active. The shares of active, inactive and inconclusive entries below differ from those in the screen. No stated cut-off is given here; in the data, active means inhibition above about 26% (passing the limit was not always enough); inconclusive means no clear call, values can overlap the other calls.
# Molecular target: Histone deacetylase 3 (Homo sapiens) (UniProt O15379)
# Test: HDAC3 deacetylase inhibitors, primary screen, biochemical, fluorescence, cell-free homogeneous (AID 2718)
# Conditions: recombinant HDAC3, fluorogenic peptide/trypsin coupled, at 8.3 µM, hits give high values
row,SMILES,inhibition
1,CN1C(=S)SC(N(O)C=C2C=CC(=O)C=C2)C1(C)C (stereo unspecified),inconclusive: 17.1%
2,Cc1ccc(N(CC(=O)Nc2ccc(C)cn2)S(=O)(=O)c2c(C)nn(C)c2C)cc1,inactive: -5.18%
3,CCc1ccc2[nH]c(=O)c(CN(CCN(CC)CC)C(=O)NC3CCCCC3)cc2c1,inconclusive: 22.9%
4,Cc1ccc(NS(=O)(=O)c2cccc(C(=O)Nc3cccnc3)c2)c(C)c1,inconclusive: 19%
5,COc1ccc(NS(=O)(=O)c2cc(OC)ccc2OC)cc1,inactive: 1.26%
6,COC(=O)/C=c1\sc2ncnn2c1=O,inactive: 7.9%
7,Cc1c(OCC(=O)NCCCN2CCCC2=O)ccc2c3c(c(=O)oc12)CCCC3,inconclusive: 14.4%
8,COc1ccc(C(=O)COc2ccccc2C(N)=O)cc1,inconclusive: 16%
9,Cc1cc(C)n2c(SCC(=O)NCc3ccc4c(c3)OCO4)nnc2n1,inconclusive: 14.8%
10,O=C(c1ccsc1)N1CCCC(Nc2ccc(F)c(F)c2)C1 (stereo unspecified),inactive: -11.9%
11,CC1CCCCN1C(=O)c1ccc(COc2ccc([N+](=O)[O-])cc2)o1 (stereo unspecified),inconclusive: 21.9%
12,Cc1ccc(CNC(=O)COc2ccccc2-c2ccccc2)cc1,inconclusive: 26.3%
13,Cc1ccc(CNC(=O)CCC2CCCN(Cc3cccc4ncccc34)C2)o1 (stereo unspecified),inconclusive: 14.9%
14,O=C(Cn1cnc2cc([N+](=O)[O-])ccc2c1=O)Nc1ccccc1Cl,inactive: -1.56%
15,Cc1cc(OC(=O)c2ccccc2)n(CCC#N)n1,active: 87.5%
16,CCOC(=O)c1cc2c(=O)n3ccccc3nc2n(C(C)C)c1=NC(=O)c1c(-c2ccccc2Cl)noc1C,inactive: -2.84%
17,Cc1occc1C(=O)N/N=C/c1ccc2c(c1)OCO2,inactive: 4.57%
18,CCOc1ccccc1NC(=O)COC(=O)/C=C/c1ccc(OC)c(OC)c1,inconclusive: 26.2%
19,COc1cc(-c2cc(C(=O)N3CCN(c4ccccn4)CC3)c3ccccc3n2)cc(OC)c1OC,inconclusive: 20.4%
20,CC(C)(C)OC(=O)CNC(=O)c1[nH]cnc1C(=O)N[C@@H](Cc1ccccc1)C(=O)OCc1ccccc1,inconclusive: 25.4%
21,Cc1ccc(S(=O)(=O)NC(Cc2ccccc2)C(=O)O)cc1 (stereo unspecified),inconclusive: 15.9%
22,CN(C)c1ccc(C(=O)c2ccc(N(C)C)c(N)c2)cc1N,inactive: 4.46%

row,SMILES,inhibition
1,O=C1C=C(Nc2ccc(O)cc2)CC(c2ccco2)C1 (stereo unspecified),inconclusive: 13.3%
2,CN(C)C(=O)c1ccc(-n2cccn2)nc1,inconclusive: 21.2%
3,O=C(Nc1ccnc(-c2ccncc2)n1)c1ccccc1Cl,inconclusive: 16.7%
4,CN(C)c1nc(N(C)C)nc(N2CC(=O)N(c3ccccc3)C2=N)n1,inconclusive: 13.9%
5,O=C(NCCN1C(=O)S/C(=C\c2ccc(Cl)cc2Cl)C1=O)C1=COCCO1,inconclusive: 19.9%
6,Clc1ccc(Nc2ccc(-n3ccnc3)nn2)cc1Cl,inactive: 1.71%
7,COCCN(CC(=O)Nc1cccc(C)c1C)C(=O)CN1C(=O)NC2(CCCCC2)C1=O,inactive: 0.806%
8,CCNC(=O)O/N=C(\C)c1sc(-c2ccc(Cl)cc2)nc1C,inconclusive: 16.3%
9,Cc1ccc(S(=O)(=O)NCCC(c2ccccc2)c2ccco2)cc1 (stereo unspecified),inactive: 12.3%
10,Cc1cc(N/N=C/c2cccc(Br)c2)nc2ccccc12,inactive: 6.56%
11,CCO[C@@H]1OC(C(N)=O)=C[C@H](c2cn(C(C)=O)c3ccccc23)[C@H]1CCCO,inconclusive: 16.8%
12,Cc1ccc(C(C(=O)NCc2ccccc2)N(Cc2ccco2)C(=O)c2snc(C(N)=O)c2N)o1 (stereo unspecified),inconclusive: 20.6%
13,Cc1cc(C)nc(N2CCCC(C(=O)NCc3ccccc3F)C2)n1 (stereo unspecified),inconclusive: 35.5%
14,Cn1cc([N+](=O)[O-])c(C(=O)N/N=C/c2ccc3c(c2)OCO3)n1,inconclusive: 16%
15,CCOC(=O)C1Nc2ccccc2C2C(O)C(O)CC12 (stereo unspecified),inconclusive: 23.2%
16,Cc1ccccc1C(=O)N/N=C1/SCC(=O)N1Cc1ccc2c(c1)OCO2,inconclusive: 20.7%
17,CCc1cccc(OCC(=O)Nc2ccc(C(=O)O)cc2NC(=O)COc2cccc(CC)c2)c1,inconclusive: 11.4%
18,Cc1ccc(C)c(NC(=O)C2CCCN(S(=O)(=O)c3c(C)nn(C)c3C)C2)c1 (stereo unspecified),inactive: -0.665%
19,CCCc1cc(-c2n[nH]c(C)c2-c2ccc(C(=O)OCC)o2)c(O)cc1O,inconclusive: 20.2%
20,CC(C)OC(=O)c1ccc(OC(=O)c2cccnc2)cc1,active: 46.7%
21,O=C1NC(=S)N/C1=C/c1cc([N+](=O)[O-])ccc1N1CCOCC1,inconclusive: 15.3%
22,S=C(NCCc1ccccc1)NC1CCCCCC1,inconclusive: 16.8%

row,SMILES,inhibition
1,COc1ccc(CN(C)CC(=O)Nc2cccc3ccccc23)cc1F,inconclusive: 19.6%
2,COC(=O)CSCC(=O)Nc1nnc(-c2ccccc2C)s1,inconclusive: 8.72%
3,O=C1N[C@@H](Cc2c[nH]c3ccccc23)COC(=O)[C@H](Cc2ccc(F)cc2)C/C=C\C[C@@H]1CC(=O)N(CCO)Cc1ccccc1,inconclusive: 27.4%
4,O=C1CCCCN1CC(=O)N1CCCC(N2CCN(c3ccccc3F)CC2)C1 (stereo unspecified),inconclusive: 26.1%
5,COc1cccc(CN2CC(C(=O)N(C)CC3CCOCC3)CCC2=O)c1 (stereo unspecified),inactive: -1.13%
6,CCOc1ccc(S(=O)(=O)NCCC(=O)NCC(c2ccc(F)cc2)N2CCOCC2)cc1 (stereo unspecified),inconclusive: 17.3%
7,CCOc1ccc(OCc2ccc(C(=O)Nc3ccc(Cl)cn3)o2)cc1,inconclusive: 15.7%
8,O=C(OCCCOC(=O)c1cc[n+]([O-])cc1)c1cc[n+]([O-])cc1,inactive: -4.65%
9,Cc1cc(-c2ccccc2N)n[nH]1,inconclusive: 19.1%
10,CCOC(=O)C(=NC1CCS(=O)(=O)C1)NNc1ccccc1Cl (stereo unspecified),inactive: 4.83%
11,O=C(NCc1n[nH]c(=S)n1-c1ccc(F)cc1)c1ccc(S(=O)(=O)N2CCOCC2)cc1,inconclusive: 27.8%
12,CCCCC(C(=O)O)C(C)CC(=O)NNC(=O)c1ccco1 (stereo unspecified),inconclusive: 20.6%
13,O=C(Nc1nc2c(Cl)cccc2s1)C1CC1,inactive: -0.655%
14,CCOC(=O)c1ccc(N2C(=O)Cc3ccccc3C2=O)cc1,inactive: -3.6%
15,COC(=O)c1c(NC(=O)CC2SC(N)=NC2=O)sc2c1CCC(C(C)(C)C)C2 (stereo unspecified),inconclusive: 23.2%
16,CCCn1cc(S(=O)(=O)c2ccc(C)cc2)c(=O)c2cc(OCC)ccc21,inconclusive: 14.6%
17,Cc1nnc(Nc2ccc(C(=O)O)cc2)[nH]c1=O,inconclusive: 21.8%
18,CCc1ccc(C2NC(=S)NC3=C2C(=O)N(c2ccccc2OC)C(c2ccc(CC)cc2)N3)cc1 (stereo unspecified),inconclusive: 23.8%
19,CC(C)(C)c1nc(SCC(=O)Nc2ccc3c(c2)OCCO3)c2ccccc2n1,inconclusive: 15.7%
20,Cn1cnnc1Sc1nc2ccccc2nc1NS(=O)(=O)c1ccccc1,inactive: -2.36%
21,COc1cc(C2CC(=O)N3CN(Cc4ccccc4)CSC3=C2C#N)ccc1OCc1ccccc1 (stereo unspecified),active: 33.1%
22,COc1ccc(S(=O)(=O)/N=C2/NC(=O)/C(=C\c3ccco3)S2)cc1,inconclusive: 14.4%

# Already shown: entries from further up.
row,SMILES,inhibition
4,O=C1CCCCN1CC(=O)N1CCCC(N2CCN(c3ccccc3F)CC2)C1 (stereo unspecified),inconclusive: 26.1%
5,COc1cccc(CN2CC(C(=O)N(C)CC3CCOCC3)CCC2=O)c1 (stereo unspecified),inactive: -1.13%
6,CCOc1ccc(S(=O)(=O)NCCC(=O)NCC(c2ccc(F)cc2)N2CCOCC2)cc1 (stereo unspecified),inconclusive: 17.3%
7,CCOc1ccc(OCc2ccc(C(=O)Nc3ccc(Cl)cn3)o2)cc1,inconclusive: 15.7%
8,O=C(OCCCOC(=O)c1cc[n+]([O-])cc1)c1cc[n+]([O-])cc1,inactive: -4.65%

# Further entries:

row,SMILES,inhibition
1,O=C(CCc1ccccc1)Nc1cccc(S(=O)(=O)N2CCOCC2)c1,inconclusive: 21.4%
2,CC(C)(C)NC(=O)C(c1ccc(O)cc1)N(C(=O)Cn1nnc(-c2ccc(F)cc2)n1)c1ccccc1F (stereo unspecified),inconclusive: 21%
3,Cc1ccsc1C(=O)N/N=C/C=C/c1ccccc1[N+](=O)[O-],inconclusive: 16.1%
4,NC(=O)c1cccc(-c2cc(Nc3ccc(OC(F)(F)F)cc3)ncn2)c1,inconclusive: 26.6%
5,CCCC(=O)Oc1ccc(N(C(=O)CCC)S(=O)(=O)c2cccs2)cc1,active: 56.2%
6,O=C(NCCN1CCN(c2ccccc2)CC1)C1CCCN(S(=O)(=O)c2cnc[nH]2)C1 (stereo unspecified),inactive: -3.68%
7,CC1(c2ccccc2)NC(=O)N(CC(=O)NCc2cccc(Cl)c2)C1=O (stereo unspecified),inactive: -2.14%
8,COc1ccc(NC(=O)c2cc(S(=O)(=O)N3CCCCC3)ccc2OC)cc1,inconclusive: 22.1%
9,COc1ccc(C(=O)N2CCCC(CNC(=O)c3ccccc3Cl)C2)o1 (stereo unspecified),inconclusive: 17.5%
10,Cc1ccc(C(=O)NNC(=S)NC(=O)c2ccc(Cl)cc2Cl)cc1,inactive: 1.42%
11,O=C(CNc1cccc(C(F)(F)F)c1)N/N=C/c1ccccc1C(=O)O,inconclusive: 14.9%
12,Cc1nc(NC(=O)C2CC2)sc1C(=O)Nc1cccc(Cl)c1,inconclusive: 18.9%
13,CC(NC(=O)C1CCN(C(=O)[C@@H]2Cc3ccccc3CN2C(=O)OC(C)(C)C)CC1)c1ccccc1 (stereo partly specified),inconclusive: 16.1%
14,O=C(CCCSc1ccc(Cl)cc1)Nc1ccccc1O,inconclusive: 24.7%
15,Cc1cc(N2CCOCC2)n2ncc(-c3ccccc3)c2n1,inconclusive: 27.1%
16,Cc1[nH]n(C2=NCCS2)c(=O)c1N=Nc1cccc(C(F)(F)F)c1,inactive: -2.46%
17,C=CC[C@@H](Cc1ccc(F)cc1)C(=O)OC[C@@H]1CCCN1C(=O)[C@@H](CC=C)CC(=O)N[C@@H](CO)Cc1ccccc1,inconclusive: 25.8%
18,Cc1ccc(-n2c(C)cc(C(=S)N3CCOCC3)c2C)cc1C,inconclusive: 17.2%
19,COc1cc2c(cc1OC)C(C(=O)Nc1ccc3c(c1)OCCO3)C1c3ccccc3CCN1C2=O (stereo unspecified),inconclusive: 27.6%
20,O=C(NC(=S)N1CCN(c2ccc([N+](=O)[O-])cc2)CC1)c1ccc(F)cc1,inconclusive: 27.1%
